# Data as given in PubChem BioAssay AID1224830 (NIAID, 2016)
# Test: 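Genes whose knock-down alters the TNF-alpha reporter response to LPS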 (primary screen)
# Cells: human THP-1 monocytic leukaemia cells, TNF dual-luciferase reporter clone, PMA-differentiated to macrophage-like cells
# Knock-down reagent: siRNA pool against human genes, 50 nM
# Time to read-out: LPS for 4 h, given about 3 days after siRNA transfection
# Conditions: bacterial LPS (TLR4 ligand), 10 ng/ml
# Measurement: 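Ratio of firefly to renilla light, scaled to the plate median and expressed as a robust z-score per replicate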
# Scale: TNF reporter robust z-score: higher = stronger TNF reporter response to LPS
# Active means: 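a well is active when its z-score exceeds 2.8 or falls below -1.5; control wells carry no call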
# The whole screen tested about 18,000 reagents; this is an unselected part. About 2,900 of them (16%) were called active. 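Calls are made per well; low scores hint the gene aids the LPS response, high scores that it dampens it.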 Repeated entries: four replicate wells of each siRNA pool.
gene,TNF reporter robust z-score,activity call
C10orf88 (chromosome 10 open reading frame 88),1.18,inactive
C10orf88 (chromosome 10 open reading frame 88),-0.14,inactive
C10orf88 (chromosome 10 open reading frame 88),0.33,inactive
C10orf88 (chromosome 10 open reading frame 88),1.02,inactive
PRSS57 (serine protease 57),-1,inactive
PRSS57 (serine protease 57),-0.4,inactive
PRSS57 (serine protease 57),-0.46,inactive
PRSS57 (serine protease 57),0.24,inactive
HSPA14 (heat shock protein family A (Hsp70) member 14),-0.79,inactive
HSPA14 (heat shock protein family A (Hsp70) member 14),-0.2,inactive
HSPA14 (heat shock protein family A (Hsp70) member 14),-0.68,inactive
HSPA14 (heat shock protein family A (Hsp70) member 14),-0.32,inactive
YIPF6 (Yip1 domain family member 6),-0.42,inactive
YIPF6 (Yip1 domain family member 6),-0.33,inactive
YIPF6 (Yip1 domain family member 6),-1.13,inactive
YIPF6 (Yip1 domain family member 6),-0.31,inactive
CDH9 (cadherin 9),0.05,inactive
CDH9 (cadherin 9),2.11,inactive
CDH9 (cadherin 9),3.78,active
CDH9 (cadherin 9),1.8,inactive
RASGRF2 (Ras protein specific guanine nucleotide releasing factor 2),-1.12,inactive
RASGRF2 (Ras protein specific guanine nucleotide releasing factor 2),-0.74,inactive
RASGRF2 (Ras protein specific guanine nucleotide releasing factor 2),0.53,inactive
RASGRF2 (Ras protein specific guanine nucleotide releasing factor 2),1.06,inactive
OR14C36 (olfactory receptor family 14 subfamily C member 36),0.63,inactive
OR14C36 (olfactory receptor family 14 subfamily C member 36),0.87,inactive
OR14C36 (olfactory receptor family 14 subfamily C member 36),0.72,inactive
OR14C36 (olfactory receptor family 14 subfamily C member 36),1.75,inactive
GPATCH2L (G-patch domain containing 2 like),,inactive
GPATCH2L (G-patch domain containing 2 like),-0.24,inactive
GPATCH2L (G-patch domain containing 2 like),-0.27,inactive
GPATCH2L (G-patch domain containing 2 like),-0.51,inactive
S100A11 (S100 calcium binding protein A11),1.16,inactive
S100A11 (S100 calcium binding protein A11),1.04,inactive
S100A11 (S100 calcium binding protein A11),0.52,inactive
S100A11 (S100 calcium binding protein A11),0.43,inactive
NOC4L (nucleolar complex associated 4 homolog),-1.01,inactive
NOC4L (nucleolar complex associated 4 homolog),-0.72,inactive
NOC4L (nucleolar complex associated 4 homolog),-0.62,inactive
NOC4L (nucleolar complex associated 4 homolog),-1.23,inactive
ZNF101 (zinc finger protein 101),1.46,inactive
ZNF101 (zinc finger protein 101),3.26,active
ZNF101 (zinc finger protein 101),1.05,inactive
ZNF101 (zinc finger protein 101),3.55,active
PCDH8 (protocadherin 8),-1.14,inactive
PCDH8 (protocadherin 8),-1.01,inactive
PCDH8 (protocadherin 8),-1.26,inactive
PCDH8 (protocadherin 8),-0.71,inactive
